The supplement of paper PMC10849652
The other results are listed elsewhere or left out.

By UniProt entry, the sequences of proteins in these tests, tags left out. Where a name states a change or a piece, a line headed by the entry shows the natural chain unless it says otherwise.
UniProt P83111: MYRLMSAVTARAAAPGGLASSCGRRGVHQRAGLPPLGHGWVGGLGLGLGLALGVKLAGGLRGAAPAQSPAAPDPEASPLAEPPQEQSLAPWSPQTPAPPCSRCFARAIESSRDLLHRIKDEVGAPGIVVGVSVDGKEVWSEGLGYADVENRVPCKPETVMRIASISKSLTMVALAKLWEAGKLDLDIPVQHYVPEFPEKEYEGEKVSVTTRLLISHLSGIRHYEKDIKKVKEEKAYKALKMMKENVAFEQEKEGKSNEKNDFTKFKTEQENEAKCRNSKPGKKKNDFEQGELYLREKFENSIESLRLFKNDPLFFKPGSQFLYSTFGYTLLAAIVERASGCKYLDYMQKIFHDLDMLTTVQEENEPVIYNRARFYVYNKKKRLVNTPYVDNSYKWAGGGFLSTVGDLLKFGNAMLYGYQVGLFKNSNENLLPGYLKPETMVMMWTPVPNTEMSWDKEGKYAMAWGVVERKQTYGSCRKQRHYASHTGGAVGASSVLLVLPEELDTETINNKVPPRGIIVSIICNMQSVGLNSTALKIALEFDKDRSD
UniProt Q9H6V9: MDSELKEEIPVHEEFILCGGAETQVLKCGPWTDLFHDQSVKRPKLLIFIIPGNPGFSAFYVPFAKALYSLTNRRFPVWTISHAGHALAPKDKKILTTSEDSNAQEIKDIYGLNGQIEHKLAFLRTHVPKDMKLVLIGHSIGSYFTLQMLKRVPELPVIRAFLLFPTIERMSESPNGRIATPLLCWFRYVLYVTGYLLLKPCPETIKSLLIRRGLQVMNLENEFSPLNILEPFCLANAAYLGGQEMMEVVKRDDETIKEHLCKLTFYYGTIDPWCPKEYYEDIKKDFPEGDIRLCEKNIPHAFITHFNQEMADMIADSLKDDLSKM
UniProt Q6ZN17: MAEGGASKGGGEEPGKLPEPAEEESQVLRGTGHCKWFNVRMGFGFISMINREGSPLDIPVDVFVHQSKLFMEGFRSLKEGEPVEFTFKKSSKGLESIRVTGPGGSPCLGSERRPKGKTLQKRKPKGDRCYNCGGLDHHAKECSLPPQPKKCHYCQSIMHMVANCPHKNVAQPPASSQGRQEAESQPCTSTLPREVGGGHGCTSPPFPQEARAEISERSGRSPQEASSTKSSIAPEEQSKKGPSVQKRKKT
UniProt Q9BQK8: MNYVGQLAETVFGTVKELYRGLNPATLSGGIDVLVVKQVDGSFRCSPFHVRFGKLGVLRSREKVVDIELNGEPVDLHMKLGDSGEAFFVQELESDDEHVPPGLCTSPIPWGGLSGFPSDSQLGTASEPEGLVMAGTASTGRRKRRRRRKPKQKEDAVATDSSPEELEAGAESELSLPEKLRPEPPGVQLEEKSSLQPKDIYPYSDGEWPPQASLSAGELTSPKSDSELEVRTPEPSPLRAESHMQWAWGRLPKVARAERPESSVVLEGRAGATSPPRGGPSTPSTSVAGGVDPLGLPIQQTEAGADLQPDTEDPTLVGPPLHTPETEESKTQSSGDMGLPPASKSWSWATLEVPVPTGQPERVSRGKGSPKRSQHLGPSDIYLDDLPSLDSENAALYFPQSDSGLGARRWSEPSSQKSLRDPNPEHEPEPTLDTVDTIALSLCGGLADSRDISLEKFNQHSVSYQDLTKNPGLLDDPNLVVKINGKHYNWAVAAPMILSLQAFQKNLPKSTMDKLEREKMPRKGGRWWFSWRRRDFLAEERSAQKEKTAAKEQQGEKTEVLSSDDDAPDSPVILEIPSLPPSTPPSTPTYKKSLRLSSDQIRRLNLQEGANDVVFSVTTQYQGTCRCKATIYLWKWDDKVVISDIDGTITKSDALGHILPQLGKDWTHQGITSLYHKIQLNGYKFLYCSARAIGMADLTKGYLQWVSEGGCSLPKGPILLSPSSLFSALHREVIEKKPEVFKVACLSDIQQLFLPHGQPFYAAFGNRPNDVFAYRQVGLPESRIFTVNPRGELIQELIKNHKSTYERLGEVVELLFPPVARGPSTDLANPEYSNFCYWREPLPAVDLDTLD
UniProt P48059, whole entry, looked up: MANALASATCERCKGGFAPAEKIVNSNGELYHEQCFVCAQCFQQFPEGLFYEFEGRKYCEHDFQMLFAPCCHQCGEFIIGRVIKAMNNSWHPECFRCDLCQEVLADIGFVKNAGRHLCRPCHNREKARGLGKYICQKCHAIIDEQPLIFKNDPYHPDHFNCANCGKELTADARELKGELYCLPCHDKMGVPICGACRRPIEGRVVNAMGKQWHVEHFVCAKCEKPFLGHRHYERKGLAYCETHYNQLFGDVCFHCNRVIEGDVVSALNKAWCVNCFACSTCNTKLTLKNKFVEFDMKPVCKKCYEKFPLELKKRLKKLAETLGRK
UniProt Q9Y546: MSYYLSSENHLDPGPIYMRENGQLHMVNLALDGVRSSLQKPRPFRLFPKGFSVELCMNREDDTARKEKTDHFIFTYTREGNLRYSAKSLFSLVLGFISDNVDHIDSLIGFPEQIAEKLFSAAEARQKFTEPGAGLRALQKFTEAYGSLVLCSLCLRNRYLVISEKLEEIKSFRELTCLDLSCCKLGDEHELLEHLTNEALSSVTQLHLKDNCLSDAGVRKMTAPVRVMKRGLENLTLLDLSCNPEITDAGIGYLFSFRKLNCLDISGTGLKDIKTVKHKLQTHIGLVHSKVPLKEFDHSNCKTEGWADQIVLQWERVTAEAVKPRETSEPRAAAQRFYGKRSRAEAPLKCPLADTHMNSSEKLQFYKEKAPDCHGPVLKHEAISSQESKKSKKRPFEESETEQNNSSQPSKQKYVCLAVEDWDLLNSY
UniProt P24043: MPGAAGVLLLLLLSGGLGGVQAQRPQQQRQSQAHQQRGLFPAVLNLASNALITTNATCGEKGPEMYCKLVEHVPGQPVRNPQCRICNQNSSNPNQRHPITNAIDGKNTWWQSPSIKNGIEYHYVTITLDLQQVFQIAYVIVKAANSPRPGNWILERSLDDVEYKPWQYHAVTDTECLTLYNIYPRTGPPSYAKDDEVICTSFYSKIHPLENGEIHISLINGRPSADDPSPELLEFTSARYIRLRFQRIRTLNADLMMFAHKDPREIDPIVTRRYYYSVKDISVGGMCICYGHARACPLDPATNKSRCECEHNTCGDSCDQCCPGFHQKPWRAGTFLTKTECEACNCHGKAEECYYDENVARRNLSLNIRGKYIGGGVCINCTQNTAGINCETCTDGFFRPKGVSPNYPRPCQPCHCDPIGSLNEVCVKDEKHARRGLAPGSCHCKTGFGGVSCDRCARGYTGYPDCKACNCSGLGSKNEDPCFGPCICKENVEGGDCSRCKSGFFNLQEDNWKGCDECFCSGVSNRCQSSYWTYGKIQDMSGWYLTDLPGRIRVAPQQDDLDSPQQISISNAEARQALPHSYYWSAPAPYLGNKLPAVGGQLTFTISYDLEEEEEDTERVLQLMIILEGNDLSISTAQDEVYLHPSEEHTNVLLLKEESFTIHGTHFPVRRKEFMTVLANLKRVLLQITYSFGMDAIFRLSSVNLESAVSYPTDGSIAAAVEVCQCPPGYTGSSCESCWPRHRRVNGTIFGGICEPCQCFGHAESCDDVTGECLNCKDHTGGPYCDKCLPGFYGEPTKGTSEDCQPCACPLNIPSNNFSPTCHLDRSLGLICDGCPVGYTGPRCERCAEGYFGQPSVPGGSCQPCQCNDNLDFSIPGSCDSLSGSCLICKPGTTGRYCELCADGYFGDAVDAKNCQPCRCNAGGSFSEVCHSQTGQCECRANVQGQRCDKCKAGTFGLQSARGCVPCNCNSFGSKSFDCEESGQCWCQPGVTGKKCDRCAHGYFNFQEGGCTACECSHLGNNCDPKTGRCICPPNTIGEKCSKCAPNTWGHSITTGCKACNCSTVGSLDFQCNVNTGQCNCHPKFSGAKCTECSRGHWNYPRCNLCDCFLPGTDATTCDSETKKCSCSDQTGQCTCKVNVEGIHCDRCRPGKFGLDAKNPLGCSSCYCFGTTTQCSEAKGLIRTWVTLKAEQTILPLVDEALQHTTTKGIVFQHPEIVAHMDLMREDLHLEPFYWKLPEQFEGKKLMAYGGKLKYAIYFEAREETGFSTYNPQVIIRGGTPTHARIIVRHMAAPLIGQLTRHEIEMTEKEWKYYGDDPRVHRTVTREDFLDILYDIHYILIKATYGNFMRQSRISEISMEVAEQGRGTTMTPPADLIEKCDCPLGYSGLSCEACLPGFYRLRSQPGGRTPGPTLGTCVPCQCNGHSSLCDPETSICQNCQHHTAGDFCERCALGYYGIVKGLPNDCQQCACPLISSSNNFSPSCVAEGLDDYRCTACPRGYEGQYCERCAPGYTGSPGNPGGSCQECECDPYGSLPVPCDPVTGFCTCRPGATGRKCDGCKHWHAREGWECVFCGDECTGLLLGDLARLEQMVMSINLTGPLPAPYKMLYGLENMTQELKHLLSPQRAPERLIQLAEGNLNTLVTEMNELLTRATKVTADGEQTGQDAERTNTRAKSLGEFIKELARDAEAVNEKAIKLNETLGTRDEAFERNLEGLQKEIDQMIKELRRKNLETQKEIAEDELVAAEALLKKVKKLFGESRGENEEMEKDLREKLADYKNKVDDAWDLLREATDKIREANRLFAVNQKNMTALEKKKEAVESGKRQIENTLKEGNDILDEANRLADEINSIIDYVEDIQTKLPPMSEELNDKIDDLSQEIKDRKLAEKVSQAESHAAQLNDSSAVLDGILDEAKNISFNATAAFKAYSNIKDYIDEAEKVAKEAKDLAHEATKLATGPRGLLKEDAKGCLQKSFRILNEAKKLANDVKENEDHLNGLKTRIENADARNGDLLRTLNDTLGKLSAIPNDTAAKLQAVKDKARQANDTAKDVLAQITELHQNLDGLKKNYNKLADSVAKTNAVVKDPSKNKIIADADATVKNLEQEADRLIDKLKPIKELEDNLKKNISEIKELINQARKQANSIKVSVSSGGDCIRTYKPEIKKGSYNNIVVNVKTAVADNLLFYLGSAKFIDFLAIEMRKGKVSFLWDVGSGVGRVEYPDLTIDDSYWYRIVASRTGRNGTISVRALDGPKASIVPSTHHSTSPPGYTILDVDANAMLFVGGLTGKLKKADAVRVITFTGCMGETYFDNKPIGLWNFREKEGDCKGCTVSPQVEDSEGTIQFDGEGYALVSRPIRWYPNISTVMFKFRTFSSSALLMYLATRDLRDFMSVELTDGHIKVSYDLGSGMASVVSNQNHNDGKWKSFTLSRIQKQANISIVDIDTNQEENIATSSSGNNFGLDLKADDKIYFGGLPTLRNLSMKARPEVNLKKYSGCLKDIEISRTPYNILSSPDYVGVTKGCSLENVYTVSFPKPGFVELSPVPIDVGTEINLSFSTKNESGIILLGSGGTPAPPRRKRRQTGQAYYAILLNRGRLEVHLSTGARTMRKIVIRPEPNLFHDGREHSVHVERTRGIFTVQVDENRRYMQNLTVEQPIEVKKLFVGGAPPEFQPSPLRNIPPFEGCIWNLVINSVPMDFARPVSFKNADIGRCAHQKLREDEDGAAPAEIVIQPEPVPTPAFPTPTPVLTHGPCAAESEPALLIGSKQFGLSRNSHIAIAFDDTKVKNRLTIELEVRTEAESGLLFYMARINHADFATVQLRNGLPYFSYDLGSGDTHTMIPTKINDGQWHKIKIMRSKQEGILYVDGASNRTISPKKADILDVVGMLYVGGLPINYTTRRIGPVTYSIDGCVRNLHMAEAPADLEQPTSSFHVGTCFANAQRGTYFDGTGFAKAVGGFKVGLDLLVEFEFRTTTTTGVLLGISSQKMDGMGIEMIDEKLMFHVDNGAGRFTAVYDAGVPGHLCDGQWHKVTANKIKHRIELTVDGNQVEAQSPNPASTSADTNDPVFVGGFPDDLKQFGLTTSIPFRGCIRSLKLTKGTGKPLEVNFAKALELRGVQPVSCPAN
UniProt Q6PJG9: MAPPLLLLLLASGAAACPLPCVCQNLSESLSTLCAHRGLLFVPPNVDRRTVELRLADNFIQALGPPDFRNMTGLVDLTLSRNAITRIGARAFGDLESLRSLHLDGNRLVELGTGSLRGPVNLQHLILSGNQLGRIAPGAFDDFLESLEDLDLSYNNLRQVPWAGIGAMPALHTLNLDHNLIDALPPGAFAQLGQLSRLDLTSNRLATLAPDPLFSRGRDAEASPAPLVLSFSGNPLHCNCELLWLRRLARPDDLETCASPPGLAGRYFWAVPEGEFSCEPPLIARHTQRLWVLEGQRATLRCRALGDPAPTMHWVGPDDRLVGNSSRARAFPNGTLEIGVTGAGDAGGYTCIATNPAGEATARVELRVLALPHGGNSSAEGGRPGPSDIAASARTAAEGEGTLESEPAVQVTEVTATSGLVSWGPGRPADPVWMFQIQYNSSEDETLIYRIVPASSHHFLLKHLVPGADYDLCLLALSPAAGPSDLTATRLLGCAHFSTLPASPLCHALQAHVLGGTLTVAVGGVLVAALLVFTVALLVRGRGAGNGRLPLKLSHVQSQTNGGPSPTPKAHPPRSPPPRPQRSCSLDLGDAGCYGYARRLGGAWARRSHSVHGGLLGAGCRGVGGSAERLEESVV

What was measured:
Assay in all cases: log2 fold change, soluble protein after heating vs DMSO (PISA); higher = thermal stabilisation; K562 cells, 10 uM, 30 min; active = over 0.2 and 3.5 SD of the protein, either way, in both replicates (recomputed)
bafetinib = compound: Cc1ccc(NC(=O)c2ccc(CN3CC[C@H](N(C)C)C3)c(C(F)(F)F)c2)cc1Nc1nccc(-c2cncnc2)n1 [bafetinib]
Summary of the method: (§1)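 K562 cells at 2×10^6 cells/mL were given 10 μM compound for 30 min. Aliquots then went through 3 min of heating across 48°C-58°C, were pooled, and were extracted in PBS with 0.5% NP-40 at 4°C, and the supernatant after 21,000xg for 90 min was quantified by TMTpro 16plex LC-MS/MS with channel sums equalised. Thermal stability relative to control samples, from duplicates, is given as log2 fold change.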

[1] = compound: Cc1cccc(CC(=O)N2CCc3c2ccc(-c2cn(C)c4ncnc(N)c24)c3F)n1
Summary of the method: as §1

nilotinib = compound: Cc1cn(-c2cc(NC(=O)c3ccc(C)c(Nc4nccc(-c5cccnc5)n4)c3)cc(C(F)(F)F)c2)cn1 [nilotinib]
Summary of the method: as §1

[2] = compound: Cc1nc(Nc2n[nH]c3c2CN(C(=O)N[C@H](CN(C)C)c2ccccc2)C3(C)C)c2sccc2n1
Summary of the method: as §1

dasatinib = compound: Cc1nc(Nc2ncc(C(=O)Nc3c(C)cccc3Cl)s2)cc(N2CCN(CCO)CC2)n1 [dasatinib]
Summary of the method: as §1

[3] = compound: Cc1ncc(-c2ccnc(Nc3ccc(S(C)(=O)=O)cc3)n2)n1C(C)C
Summary of the method: as §1

[4] = compound: Cn1cc(-c2ccc3c(c2)CCN3C(=O)Cc2cccc(C(F)(F)F)c2)c2c(N)ncnc21
Summary of the method: as §1

[5] = compound: Cn1cc(-c2ccc3nnc(C(F)(F)c4ccc5ncccc5c4)n3n2)cn1
Summary of the method: as §1

tipifarnib = compound: Cn1cncc1[C@@](N)(c1ccc(Cl)cc1)c1ccc2c(c1)c(-c1cccc(Cl)c1)cc(=O)n2C [tipifarnib]
Summary of the method: as §1

mubritinib = compound: FC(F)(F)c1ccc(/C=C/c2nc(COc3ccc(CCCCn4ccnn4)cc3)co2)cc1 [mubritinib]
Summary of the method: as §1

Measured: log2 fold change

LACTB (UniProt P83111)
inactive: bafetinib -0.08 | [1] -0.05 | nilotinib -0.011 | [2] 0.022 | dasatinib 0.105 | [3] -0.084 | [4] -0.096 | [5] -0.297 | tipifarnib 0.03 | mubritinib -0.107

LMBRD2 (UniProt Q68DH5)
inactive: bafetinib -0.142 | [1] -0.006 | nilotinib -0.048 | [2] 0.041 | dasatinib 0.019 | [3] -0.028 | [4] -0.03 | [5] 0.043 | tipifarnib 0.189 | mubritinib -0.007

LACTB2 (UniProt Q53H82)
inactive: bafetinib -0.026 | [1] 0.024 | nilotinib 0.05 | [2] -0.007 | dasatinib 0.052 | [3] 0.011 | [4] 0 | [5] 0.009 | tipifarnib 0.012 | mubritinib 0.01

LRRC57 (UniProt Q8N9N7)
inactive: bafetinib -0.004 | [1] 0.02 | nilotinib 0.008 | [2] -0.015 | dasatinib 0.022 | [3] 0.012 | [4] 0.066 | [5] 0.004 | tipifarnib -0.023 | mubritinib 0.036

LAMTOR1 (UniProt Q6IAA8)
inactive: bafetinib -0.072 | [1] 0.042 | nilotinib -0.036 | [2] -0.04 | dasatinib 0.012 | [3] -0.043 | [4] -0.002 | [5] 0.051 | tipifarnib 0.004 | mubritinib 0.016

LMNB1 (UniProt P20700)
inactive: bafetinib -0.089 | [1] -0.004 | nilotinib 0.037 | [2] -0.11 | dasatinib 0.092 | [3] -0.117 | [4] -0.059 | [5] -0.074 | tipifarnib 0.105 | mubritinib -0.069

LHPP (UniProt Q9H008)
inactive: bafetinib -0.034 | [1] 0.006 | nilotinib -0.008 | [2] -0.14 | dasatinib 0.031 | [3] -0.049 | [4] 0.044 | [5] -0.15 | tipifarnib 0.054 | mubritinib -0.032

LLPH (UniProt Q9BRT6)
inactive: bafetinib 0.491 | [1] 0.034 | nilotinib -0.059 | [2] 0.145 | dasatinib 0.223 | [3] -0.034 | [4] -0.4 | [5] -0.295 | tipifarnib -0.157 | mubritinib -0.325

LASP1 (UniProt Q14847)
inactive: bafetinib -0.054 | [1] 0.02 | nilotinib 0 | [2] -0.029 | dasatinib 0.036 | [3] -0.012 | [4] 0.011 | [5] 0.034 | tipifarnib -0.015 | mubritinib 0.02

LARS (UniProt Q9P2J5)
inactive: bafetinib 0.064 | [1] 0.02 | nilotinib -0.096 | [2] -0.018 | dasatinib 0.018 | [3] 0.036 | [4] -0.161 | [5] -0.129 | tipifarnib 0.056 | mubritinib -0.125

LDAH isoform 2 (UniProt Q9H6V9)
inactive: bafetinib -0.188 | [1] -0.027 | nilotinib 0.175 | [2] -0.122 | dasatinib -0.215 | [3] -0.035 | [4] 0.082 | [5] -0.025 | tipifarnib 0.076 | mubritinib 0.094

LIN28B (UniProt Q6ZN17)
inactive: bafetinib 0.048 | [1] -0.064 | nilotinib 0.023 | [2] -0.024 | dasatinib 0.077 | [3] 0.033 | [4] -0.108 | [5] -0.072 | tipifarnib 0.027 | mubritinib -0.061

LAMTOR5 (UniProt O43504)
inactive: bafetinib -0.087 | [1] -0.157 | nilotinib 0.068 | [2] -0.027 | dasatinib -0.042 | [3] -0.113 | [4] -0.005 | [5] 0.14 | tipifarnib 0.35 | mubritinib 0.105

LENG1 (UniProt Q96BZ8)
inactive: bafetinib -0.027 | [1] -0.099 | nilotinib 0.021 | [2] 0.079 | dasatinib 0.051 | [3] -0.022 | [4] 0.006 | [5] 0.005 | tipifarnib 0.013 | mubritinib -0.008

Taken from the results shown (two entries):
LAMTOR5 (UniProt O43504)
inactive: bafetinib -0.087 | [1] -0.157 | nilotinib 0.068 | [2] -0.027 | dasatinib -0.042 | [3] -0.113 | [4] -0.005 | [5] 0.14 | tipifarnib 0.35 | mubritinib 0.105

LENG1 (UniProt Q96BZ8)
inactive: bafetinib -0.027 | [1] -0.099 | nilotinib 0.021 | [2] 0.079 | dasatinib 0.051 | [3] -0.022 | [4] 0.006 | [5] 0.005 | tipifarnib 0.013 | mubritinib -0.008

Later entries

LDLR (UniProt P01130)
inactive: bafetinib 0.005 | [1] -0.029 | nilotinib 0.041 | [2] -0.027 | dasatinib 0.056 | [3] -0.064 | [4] 0.013 | [5] 0.029 | tipifarnib 0.097 | mubritinib -0.082

LRIF1 (UniProt Q5T3J3)
inactive: bafetinib 0.007 | [1] -0.064 | nilotinib 0.095 | [2] 0.038 | dasatinib -0.096 | [3] -0.038 | [4] 0.055 | [5] 0.1 | tipifarnib 0.102 | mubritinib -0.044

LPIN3 isoform 2 (UniProt Q9BQK8)
inactive: bafetinib 0.006 | [1] 0.024 | nilotinib -0.005 | [2] -0.051 | dasatinib -0.128 | [3] 0.038 | [4] 0.06 | [5] 0.002 | tipifarnib 0.008 | mubritinib 0.089

LIMS1 isoform 3 (UniProt P48059)
inactive: bafetinib -0.024 | [1] 0.008 | nilotinib -0.026 | [2] 0.002 | dasatinib 0.017 | [3] 0.006 | [4] 0.019 | [5] 0.02 | tipifarnib -0.027 | mubritinib 0.002

LARP1 (UniProt Q6PKG0)
inactive: bafetinib 0.049 | [1] 0.024 | nilotinib -0.063 | [2] -0.014 | dasatinib 0.014 | [3] -0.028 | [4] -0.067 | [5] -0.043 | tipifarnib 0.047 | mubritinib -0.011

LEG1 (UniProt Q6P5S2)
inactive: bafetinib 0.071 | [1] 0.175 | nilotinib -0.032 | [2] 0.034 | dasatinib 0.024 | [3] 0.081 | [4] -0.134 | tipifarnib -0.222 | mubritinib 0.122

LIN28A (UniProt Q9H9Z2)
inactive: bafetinib 0.16 | [1] -0.026 | dasatinib 0.055 | [4] -0.097

L1RE1 (UniProt Q9UN81)
inactive: bafetinib 0.151 | nilotinib 0.154 | [2] 0.043 | dasatinib 0.189 | [3] -0.003 | [4] -0.016 | [5] -0.122 | tipifarnib 0.088 | mubritinib 0.014

LPCAT2 (UniProt Q7L5N7)
inactive: bafetinib -0.061 | [1] 0.037 | dasatinib -0.061 | [4] -0.041 | [5] -0.014 | tipifarnib 0.035 | mubritinib 0.07

LANCL3 (UniProt Q6ZV70)
inactive: bafetinib 0.035 | nilotinib -0.182 | [2] 0.121 | dasatinib -0.114 | [3] -0.063 | [4] -0.011

LRRC42 (UniProt Q9Y546)
inactive: bafetinib -0.088 | [1] -0.035 | dasatinib -0.255 | [4] -0.053 | [5] -0.019

LAMA2 (UniProt P24043)
inactive: bafetinib -0.067 | nilotinib 0.157 | [2] -0.076 | [3] 0.102 | [4] -0.095 | mubritinib 0.245

LRFN4 (UniProt Q6PJG9)
inactive: bafetinib -0.102 | [1] 0.16 | dasatinib -0.138 | [4] -0.008 | [5] -0.011 | tipifarnib 0.021 | mubritinib -0.008

LIN7A (UniProt O14910)
inactive: bafetinib -0.015 | nilotinib -0.022 | [2] 0.039 | dasatinib -0.005 | [3] -0.044 | [4] -0.019 | [5] -0.025 | tipifarnib -0.132 | mubritinib -0.006

LMBR1 isoform 3 (UniProt Q8WVP7)
inactive: bafetinib -0.182 | [1] 0.007 | dasatinib 0.012 | [4] 0.093 | [5] -0.143 | tipifarnib -0.044 | mubritinib 0.063

LAMP2 isoform 2 (UniProt P13473)
inactive: bafetinib -0.014 | [1] -0.014 | nilotinib 0.018 | [2] -0.009 | dasatinib -0.047 | [3] 0 | [4] 0.005 | tipifarnib 0.126 | mubritinib 0.003
